{
  "sequences": {"note": "Sequences of proteins named here, by UniProt entry; tags and fusion partners are left off. A change or cut given only in a name is not applied to a line headed by its entry.", "UniProt Q9HCE5": "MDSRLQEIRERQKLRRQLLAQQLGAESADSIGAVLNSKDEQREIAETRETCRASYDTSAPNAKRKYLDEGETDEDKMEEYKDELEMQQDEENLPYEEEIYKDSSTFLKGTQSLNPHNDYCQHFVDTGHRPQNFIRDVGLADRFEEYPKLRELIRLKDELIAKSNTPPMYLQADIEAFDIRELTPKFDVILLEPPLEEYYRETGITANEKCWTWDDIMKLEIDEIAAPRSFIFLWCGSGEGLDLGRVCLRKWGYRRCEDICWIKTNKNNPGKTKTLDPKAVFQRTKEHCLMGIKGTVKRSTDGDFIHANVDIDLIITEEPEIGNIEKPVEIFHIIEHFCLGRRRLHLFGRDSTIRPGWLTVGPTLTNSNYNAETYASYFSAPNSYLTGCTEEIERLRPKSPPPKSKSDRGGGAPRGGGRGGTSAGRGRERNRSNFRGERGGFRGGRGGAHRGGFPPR", "UniProt Q9H2J4": "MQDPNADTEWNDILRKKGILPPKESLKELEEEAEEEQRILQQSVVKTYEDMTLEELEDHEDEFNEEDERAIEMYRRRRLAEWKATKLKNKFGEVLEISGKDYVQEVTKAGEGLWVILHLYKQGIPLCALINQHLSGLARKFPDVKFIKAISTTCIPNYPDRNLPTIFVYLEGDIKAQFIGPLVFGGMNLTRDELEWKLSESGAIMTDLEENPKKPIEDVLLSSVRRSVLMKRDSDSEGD", "UniProt Q9H7Z7": "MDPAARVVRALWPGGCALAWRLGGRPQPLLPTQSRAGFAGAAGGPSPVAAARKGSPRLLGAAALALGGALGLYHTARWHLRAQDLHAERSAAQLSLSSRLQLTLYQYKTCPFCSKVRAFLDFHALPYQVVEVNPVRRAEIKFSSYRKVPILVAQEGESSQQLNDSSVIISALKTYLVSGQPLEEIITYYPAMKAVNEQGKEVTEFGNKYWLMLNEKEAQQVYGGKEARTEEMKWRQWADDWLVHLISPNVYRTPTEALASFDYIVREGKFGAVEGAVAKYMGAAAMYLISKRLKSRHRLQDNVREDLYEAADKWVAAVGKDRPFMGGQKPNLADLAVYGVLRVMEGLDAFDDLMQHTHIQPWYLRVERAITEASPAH", "UniProt Q9NQE9": "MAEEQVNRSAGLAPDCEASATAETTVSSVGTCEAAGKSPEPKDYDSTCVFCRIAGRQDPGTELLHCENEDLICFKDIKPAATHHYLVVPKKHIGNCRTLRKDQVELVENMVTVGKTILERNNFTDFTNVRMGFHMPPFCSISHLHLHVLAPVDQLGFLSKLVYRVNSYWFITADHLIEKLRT", "UniProt Q9NR45": "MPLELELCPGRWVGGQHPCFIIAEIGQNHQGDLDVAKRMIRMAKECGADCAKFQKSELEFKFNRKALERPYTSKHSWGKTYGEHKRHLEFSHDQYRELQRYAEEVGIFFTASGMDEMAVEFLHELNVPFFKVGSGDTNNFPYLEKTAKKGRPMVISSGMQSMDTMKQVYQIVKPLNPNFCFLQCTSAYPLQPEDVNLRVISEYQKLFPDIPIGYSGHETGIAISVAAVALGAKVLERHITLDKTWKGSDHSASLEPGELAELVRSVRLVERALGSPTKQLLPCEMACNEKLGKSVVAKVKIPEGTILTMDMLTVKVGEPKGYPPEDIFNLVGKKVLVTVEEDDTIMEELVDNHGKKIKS", "UniProt Q9H0X9": "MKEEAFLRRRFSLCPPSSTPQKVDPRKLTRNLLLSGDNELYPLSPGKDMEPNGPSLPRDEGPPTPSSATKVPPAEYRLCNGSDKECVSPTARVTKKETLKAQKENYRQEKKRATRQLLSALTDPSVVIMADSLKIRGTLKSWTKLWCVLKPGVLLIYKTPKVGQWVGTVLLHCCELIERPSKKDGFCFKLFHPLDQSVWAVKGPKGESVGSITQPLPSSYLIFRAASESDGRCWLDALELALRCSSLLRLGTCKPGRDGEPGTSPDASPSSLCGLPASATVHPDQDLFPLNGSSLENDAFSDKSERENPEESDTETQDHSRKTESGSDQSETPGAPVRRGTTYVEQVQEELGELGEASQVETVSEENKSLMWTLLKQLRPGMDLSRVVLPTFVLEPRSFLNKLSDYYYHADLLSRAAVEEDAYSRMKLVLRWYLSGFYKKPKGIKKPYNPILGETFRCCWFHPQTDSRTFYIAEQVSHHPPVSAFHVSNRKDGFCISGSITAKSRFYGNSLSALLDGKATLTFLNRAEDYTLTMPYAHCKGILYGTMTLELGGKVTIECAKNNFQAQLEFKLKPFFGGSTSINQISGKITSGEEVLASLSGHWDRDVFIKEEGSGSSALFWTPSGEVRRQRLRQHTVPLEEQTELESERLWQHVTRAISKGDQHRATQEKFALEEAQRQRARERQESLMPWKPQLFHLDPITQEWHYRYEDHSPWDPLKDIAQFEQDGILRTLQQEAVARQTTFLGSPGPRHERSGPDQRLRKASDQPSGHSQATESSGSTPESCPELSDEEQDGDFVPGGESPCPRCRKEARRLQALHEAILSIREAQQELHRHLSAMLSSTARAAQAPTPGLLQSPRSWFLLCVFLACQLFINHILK", "UniProt Q9HBU6": "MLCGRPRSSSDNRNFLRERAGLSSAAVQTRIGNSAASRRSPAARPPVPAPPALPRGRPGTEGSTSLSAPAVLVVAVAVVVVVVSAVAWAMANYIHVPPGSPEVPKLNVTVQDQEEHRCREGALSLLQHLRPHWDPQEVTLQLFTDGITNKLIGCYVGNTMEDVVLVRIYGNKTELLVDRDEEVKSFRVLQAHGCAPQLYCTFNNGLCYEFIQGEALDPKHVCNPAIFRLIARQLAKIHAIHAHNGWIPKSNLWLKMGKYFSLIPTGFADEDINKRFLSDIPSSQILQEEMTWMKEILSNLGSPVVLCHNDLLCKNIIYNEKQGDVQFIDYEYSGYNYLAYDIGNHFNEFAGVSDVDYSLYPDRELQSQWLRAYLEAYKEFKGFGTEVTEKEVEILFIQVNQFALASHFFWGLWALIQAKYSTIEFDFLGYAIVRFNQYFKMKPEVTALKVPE", "UniProt Q9H1Y0": "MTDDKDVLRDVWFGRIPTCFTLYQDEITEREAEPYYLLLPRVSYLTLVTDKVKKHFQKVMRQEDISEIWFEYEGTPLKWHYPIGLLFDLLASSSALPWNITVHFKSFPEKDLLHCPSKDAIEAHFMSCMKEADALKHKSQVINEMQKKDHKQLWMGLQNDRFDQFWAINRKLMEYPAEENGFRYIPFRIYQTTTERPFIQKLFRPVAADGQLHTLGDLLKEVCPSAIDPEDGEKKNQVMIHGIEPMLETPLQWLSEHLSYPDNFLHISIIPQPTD", "UniProt Q9NQZ2": "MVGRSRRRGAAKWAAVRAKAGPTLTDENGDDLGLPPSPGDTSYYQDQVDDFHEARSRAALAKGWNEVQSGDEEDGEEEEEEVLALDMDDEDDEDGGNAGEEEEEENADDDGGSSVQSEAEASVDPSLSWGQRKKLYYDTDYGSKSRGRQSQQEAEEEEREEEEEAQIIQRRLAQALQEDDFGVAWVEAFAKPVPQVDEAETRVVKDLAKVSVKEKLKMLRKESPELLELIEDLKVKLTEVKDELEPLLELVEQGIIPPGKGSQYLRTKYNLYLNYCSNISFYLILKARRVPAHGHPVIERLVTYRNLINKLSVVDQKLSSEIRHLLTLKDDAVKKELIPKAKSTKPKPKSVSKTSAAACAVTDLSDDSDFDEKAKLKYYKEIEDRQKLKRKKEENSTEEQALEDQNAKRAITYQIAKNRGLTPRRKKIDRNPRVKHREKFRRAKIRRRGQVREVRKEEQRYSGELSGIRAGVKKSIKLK", "UniProt Q9C0B0": "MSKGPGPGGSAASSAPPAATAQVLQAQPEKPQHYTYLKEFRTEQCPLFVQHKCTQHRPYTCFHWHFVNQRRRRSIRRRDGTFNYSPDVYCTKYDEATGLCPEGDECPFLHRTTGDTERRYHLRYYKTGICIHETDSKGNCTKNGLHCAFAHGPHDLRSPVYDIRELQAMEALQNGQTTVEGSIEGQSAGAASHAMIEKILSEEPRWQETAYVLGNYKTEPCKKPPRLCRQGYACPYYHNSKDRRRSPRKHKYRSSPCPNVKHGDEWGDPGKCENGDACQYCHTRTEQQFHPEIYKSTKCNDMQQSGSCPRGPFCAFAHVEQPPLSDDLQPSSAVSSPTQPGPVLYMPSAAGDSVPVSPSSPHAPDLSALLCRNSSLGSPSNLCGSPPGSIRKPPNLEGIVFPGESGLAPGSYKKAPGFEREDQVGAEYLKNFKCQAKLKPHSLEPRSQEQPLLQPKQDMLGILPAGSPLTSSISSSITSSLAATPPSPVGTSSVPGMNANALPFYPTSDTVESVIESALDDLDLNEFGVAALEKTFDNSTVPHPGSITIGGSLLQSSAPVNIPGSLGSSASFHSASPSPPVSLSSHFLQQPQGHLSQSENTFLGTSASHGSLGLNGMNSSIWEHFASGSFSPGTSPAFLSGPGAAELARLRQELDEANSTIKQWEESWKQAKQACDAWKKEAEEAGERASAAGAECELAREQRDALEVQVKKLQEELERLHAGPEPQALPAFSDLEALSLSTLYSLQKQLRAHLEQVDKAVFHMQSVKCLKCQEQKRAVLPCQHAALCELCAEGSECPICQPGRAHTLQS", "UniProt Q9H6R7": "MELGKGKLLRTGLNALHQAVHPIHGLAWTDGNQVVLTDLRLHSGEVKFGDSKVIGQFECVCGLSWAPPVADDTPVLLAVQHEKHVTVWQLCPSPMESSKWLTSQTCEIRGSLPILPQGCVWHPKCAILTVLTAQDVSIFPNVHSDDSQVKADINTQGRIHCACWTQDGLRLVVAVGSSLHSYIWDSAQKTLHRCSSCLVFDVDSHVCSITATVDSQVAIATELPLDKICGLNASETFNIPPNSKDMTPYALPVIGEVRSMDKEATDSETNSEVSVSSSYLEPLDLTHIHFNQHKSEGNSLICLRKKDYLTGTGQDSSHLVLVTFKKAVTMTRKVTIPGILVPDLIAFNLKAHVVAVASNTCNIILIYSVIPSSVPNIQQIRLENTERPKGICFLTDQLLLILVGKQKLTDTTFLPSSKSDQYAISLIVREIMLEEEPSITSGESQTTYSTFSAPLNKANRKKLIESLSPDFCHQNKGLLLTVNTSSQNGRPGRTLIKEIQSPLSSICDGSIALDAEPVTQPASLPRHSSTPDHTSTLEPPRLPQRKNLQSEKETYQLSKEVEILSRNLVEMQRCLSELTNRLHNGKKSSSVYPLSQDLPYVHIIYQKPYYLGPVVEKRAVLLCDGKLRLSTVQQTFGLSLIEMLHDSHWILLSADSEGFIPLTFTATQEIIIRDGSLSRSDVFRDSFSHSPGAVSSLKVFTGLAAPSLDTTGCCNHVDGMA", "UniProt Q9HCS7": "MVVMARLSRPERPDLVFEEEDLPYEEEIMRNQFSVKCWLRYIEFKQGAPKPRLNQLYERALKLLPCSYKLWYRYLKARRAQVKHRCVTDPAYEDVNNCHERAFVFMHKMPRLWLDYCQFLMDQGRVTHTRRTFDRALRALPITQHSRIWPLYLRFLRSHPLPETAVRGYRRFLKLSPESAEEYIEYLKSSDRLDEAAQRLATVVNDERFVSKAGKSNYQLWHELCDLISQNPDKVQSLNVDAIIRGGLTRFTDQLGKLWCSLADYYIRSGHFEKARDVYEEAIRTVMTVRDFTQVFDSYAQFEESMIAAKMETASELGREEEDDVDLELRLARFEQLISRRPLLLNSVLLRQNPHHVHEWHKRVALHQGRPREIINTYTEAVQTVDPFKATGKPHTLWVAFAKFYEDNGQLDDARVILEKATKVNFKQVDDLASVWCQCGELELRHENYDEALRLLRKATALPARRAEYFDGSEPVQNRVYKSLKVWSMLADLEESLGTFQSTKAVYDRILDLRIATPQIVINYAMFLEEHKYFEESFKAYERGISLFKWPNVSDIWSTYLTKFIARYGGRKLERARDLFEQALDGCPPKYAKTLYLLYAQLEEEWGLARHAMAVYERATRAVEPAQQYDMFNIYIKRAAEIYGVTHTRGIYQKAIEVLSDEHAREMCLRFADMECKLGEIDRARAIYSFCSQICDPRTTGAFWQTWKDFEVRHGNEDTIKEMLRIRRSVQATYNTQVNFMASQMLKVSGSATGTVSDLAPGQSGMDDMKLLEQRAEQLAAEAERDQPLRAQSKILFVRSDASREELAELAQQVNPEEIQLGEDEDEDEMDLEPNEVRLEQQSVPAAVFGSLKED", "UniProt Q9NP66": "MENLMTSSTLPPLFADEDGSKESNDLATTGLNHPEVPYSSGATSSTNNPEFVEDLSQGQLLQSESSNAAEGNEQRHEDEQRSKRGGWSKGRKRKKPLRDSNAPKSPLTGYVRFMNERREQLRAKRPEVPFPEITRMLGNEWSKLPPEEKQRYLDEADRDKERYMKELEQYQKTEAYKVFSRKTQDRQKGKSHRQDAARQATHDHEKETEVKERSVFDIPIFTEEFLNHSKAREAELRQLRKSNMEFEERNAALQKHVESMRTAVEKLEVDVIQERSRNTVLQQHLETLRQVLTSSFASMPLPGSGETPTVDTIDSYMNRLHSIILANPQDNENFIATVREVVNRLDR"},
  "source": "the supplement of paper PMC6411743",
  "note": "± gives the standard deviation of the averaged measurements. The list shows a part of the results.",
  "data": [
    {"compound": "Nc1nc2c(ncn2[C@@H]2O[C@H](COP(=O)(O)OP(=O)(O)OP(=O)(O)O)[C@@H](O)[C@H]2O)c(=O)[nH]1 [guanosine triphosphate]", "experiment": "NP40-soluble protein abundance relative to vehicle (solubility fold change) (ratio); higher = more soluble protein in presence of GTP", "conditions": "concentration: 10mM", "method_in_brief": "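Data come from three independent experiments in which Dounce-homogenised Jurkat crude lysate was treated at eight concentrations from 0.1 to 10 mM. Treatment ran 10 min at room temperature and then 3 min at 37 °C, after which 0.8% NP40 and benzonase were added for 60 min at 4 °C before ultracentrifugation. The supernatant underwent TMT labelling and LC-MS/MS, and vsn-normalised intensities were expressed as fold change against the detergent-processed vehicle in each replicate.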", "values": [
      {"target": "EGLN1 (UniProt Q9GZT9)", "NP40-soluble protein abundance": "0.988 ± 0.1"},
      {"target": "UniProt Q9HD20 and related entries", "NP40-soluble protein abundance": "0.874 ± 0.079"},
      {"target": "UniProt Q9H330 and related entries", "NP40-soluble protein abundance": "0.833 ± 0.037"},
      {"target": "UPF2 (UniProt Q9HAU5)", "NP40-soluble protein abundance": "0.987 ± 0.059"},
      {"target": "KLC2 (UniProt Q9H0B6)", "NP40-soluble protein abundance": "0.993 ± 0.096"},
      {"target": "UniProt Q9HCE5", "NP40-soluble protein abundance": "0.847 ± 0.03"},
      {"target": "UniProt Q9NNW7 and related entries", "NP40-soluble protein abundance": "1.01 ± 0.057"},
      {"target": "PDCL3 (UniProt Q9H2J4)", "NP40-soluble protein abundance": "1.05 ± 0.1"},
      {"target": "UniProt Q9H7Z7 and related entries", "NP40-soluble protein abundance": "0.85 ± 0.062"},
      {"target": "PDF (UniProt Q9HBH1)", "NP40-soluble protein abundance": "0.934 ± 0.083"},
      {"target": "UniProt Q9HDC9-2|Q9HDC9", "NP40-soluble protein abundance": "0.845 ± 0.059"},
      {"target": "UniProt Q9H2D6-5|Q9H2D6 and related entries", "NP40-soluble protein abundance": "0.951 ± 0.11"},
      {"target": "RMI1 (UniProt Q9H9A7)", "NP40-soluble protein abundance": "1.01 ± 0.089"},
      {"target": "UniProt Q9GZT3 and related entries", "NP40-soluble protein abundance": "1.09 ± 0.17"},
      {"target": "UniProt Q9H871", "NP40-soluble protein abundance": "1.14 ± 0.14"},
      {"target": "UniProt Q9H3Z4 and related entries", "NP40-soluble protein abundance": "0.878 ± 0.089"},
      {"target": "HINT3 (UniProt Q9NQE9)", "NP40-soluble protein abundance": "0.905 ± 0.08"},
      {"target": "NANS (UniProt Q9NR45)", "NP40-soluble protein abundance": "0.86 ± 0.07"},
      {"target": "CPVL (UniProt Q9H3G5)", "NP40-soluble protein abundance": "0.97 ± 0.021"},
      {"target": "PELI2 (UniProt Q9HAT8)", "NP40-soluble protein abundance": "0.905 ± 0.1"},
      {"target": "UniProt Q9H6Z4 and related entries", "NP40-soluble protein abundance": "0.889 ± 0.12"},
      {"target": "GOLPH3 (UniProt Q9H4A6)", "NP40-soluble protein abundance": "0.876 ± 0.067"},
      {"target": "UniProt Q9GZU8", "NP40-soluble protein abundance": "0.931 ± 0.013"},
      {"target": "UniProt Q9HBE1 and related entries", "NP40-soluble protein abundance": "1.45 ± 0.029"},
      {"target": "UniProt Q9H0X9 and related entries", "NP40-soluble protein abundance": "1.1 ± 0.068"},
      {"target": "UniProt Q9H078 and related entries", "NP40-soluble protein abundance": "1.01 ± 0.063"},
      {"target": "CWC22 (UniProt Q9HCG8)", "NP40-soluble protein abundance": "0.978 ± 0.12"},
      {"target": "UniProt Q9H1E5", "NP40-soluble protein abundance": "0.88 ± 0.096"},
      {"target": "ETNK1 (UniProt Q9HBU6)", "NP40-soluble protein abundance": "0.947 ± 0.014"},
      {"target": "UniProt Q9HC36", "NP40-soluble protein abundance": "1.62 ± 0.18"},
      {"target": "ATG5 (UniProt Q9H1Y0)", "NP40-soluble protein abundance": "0.952 ± 0.073"},
      {"target": "UTP3 (UniProt Q9NQZ2)", "NP40-soluble protein abundance": "1.02 ± 0.06"},
      {"target": "UNK (UniProt Q9C0B0)", "NP40-soluble protein abundance": "1.18 ± 0.061"},
      {"target": "UniProt Q9H6R7 and related entries", "NP40-soluble protein abundance": "1.11 ± 0.2"},
      {"target": "XAB2 (UniProt Q9HCS7)", "NP40-soluble protein abundance": "0.938 ± 0.1"},
      {"target": "HMG20A (UniProt Q9NP66)", "NP40-soluble protein abundance": "1.6 ± 0.35"},
      {"target": "NMRAL1 (UniProt Q9HBL8)", "NP40-soluble protein abundance": "0.845 ± 0.063"}
    ]}
  ]
}
